Results on 105 compounds are retold here after PubChem BioAssay AID1347421 (Sanford-Burnham Center for Chemical Genomics, 2020).

Protein sequences, listed by entry. Tags and fused reporters are not part of them. Lines headed by an entry give the natural chain unless they say otherwise; changes in a name come on top.
UniProt O00391: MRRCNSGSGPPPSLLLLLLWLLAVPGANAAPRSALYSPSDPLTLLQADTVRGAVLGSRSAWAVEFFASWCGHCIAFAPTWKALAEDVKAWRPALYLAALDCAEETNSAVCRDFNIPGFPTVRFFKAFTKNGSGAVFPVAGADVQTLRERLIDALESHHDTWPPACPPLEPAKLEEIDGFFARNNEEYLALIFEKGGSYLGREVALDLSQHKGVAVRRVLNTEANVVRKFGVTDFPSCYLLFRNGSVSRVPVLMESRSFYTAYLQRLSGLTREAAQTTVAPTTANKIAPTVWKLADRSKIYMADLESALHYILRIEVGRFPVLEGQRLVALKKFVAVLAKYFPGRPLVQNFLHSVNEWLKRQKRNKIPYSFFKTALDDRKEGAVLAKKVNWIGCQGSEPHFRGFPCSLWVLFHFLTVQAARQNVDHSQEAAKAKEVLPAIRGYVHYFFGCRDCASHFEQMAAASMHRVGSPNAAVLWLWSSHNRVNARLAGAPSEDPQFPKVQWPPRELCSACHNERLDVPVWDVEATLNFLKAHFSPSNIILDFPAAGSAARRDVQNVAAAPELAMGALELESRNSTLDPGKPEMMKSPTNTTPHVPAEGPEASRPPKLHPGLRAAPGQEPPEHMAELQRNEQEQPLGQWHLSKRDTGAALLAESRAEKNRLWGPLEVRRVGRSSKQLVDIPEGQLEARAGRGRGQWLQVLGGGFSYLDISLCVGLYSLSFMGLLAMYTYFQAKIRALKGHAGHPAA

Molecules are shown by their SMILES. Over roughly 1,500 compounds, “activity” has its median near 2; the lowest 2% begin near -18. The list shows a part of the results. The source made the active and inactive calls.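 Rule for the calls: active = inhibition of at least 40% at 10 µM; inconclusive = no clear call, values can overlap the other calls; inactive = the rest.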

For the assay, the target named is Sulfhydryl oxidase 1 (Homo sapiens) (UniProt O00391). The assay can be described thus: QSOX1 enzyme inhibitors, confirmation, biochemical, ROS-Glo luminescence, single concentration (AID 1347421).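 Note: 0% = DMSO wells with enzyme and 100% = wells lacking QSOX1 enzyme.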 Conditions: recombinant hQSOX1, RNase A substrate, ROS-Glo H2O2 luminescence; at 10 µM.
As for `O=C1CC(c2ccc(S(=O)(=O)N3CCCC3)cc2)CN1` (stereo not given), the activity was inactive: -1.5%. Turning to `CC(NC(=O)Cn1nc(-c2ccccc2)ccc1=O)c1ccccc1` (stereo not given), the activity stood at 8.8%. To `O=C(c1ccc(Oc2ccccc2)cc1)C1CCCN(C(=O)CCN2CCCC2=O)C1` (stereo not given) belongs 3.7%; to `O=C(CCC1CCCN(C(=O)Cn2cnnn2)C1)N1CCN(Cc2ccccc2)CC1` (stereo not given), 9.9%. To `CSc1ccccc1NC(=O)c1ccc(NS(C)(=O)=O)cc1` belongs 3.7%; to `COCC1CCCN(C(=O)c2cn(C(c3ccccc3)c3ccccc3)nn2)C1` (stereo not given), 4.7%. With `O=C(CCC1CCN(CC2CCOC2)CC1)N1CCC(Cc2ccccc2)CC1` (stereo not given) the figure was 1.7%. For the compound `Cc1c(CN2CCCC(N3CCN(c4ccccc4)CC3)C2)c(=O)n(-c2ccccc2)n1C` (stereo not given), the activity is inactive: -4.8%. To `COc1ccc(-n2cc(CN[C@H]3CCCCNC3=O)c(-c3cccc(F)c3)n2)cc1` belongs inactive: -3.9%; to `Cc1cccc(-n2ccnc2CN2CCC(CCC(=O)N3CCOCC3)CC2)c1`, 8.9%; to `Cc1ccccc1C(=O)Nc1ccccc1C(=O)N(C)C`, inactive: -20%. Take `CC1(C)CC(=O)C=C(C(=O)N2CCCC(Nc3ccc4c(c3)OCCO4)C2)O1` (stereo not given): the activity was 14.7%. To `CCOc1ccccc1CN1CCNC(=O)C1CC(=O)NCC1CCN(CCOC)CC1` (stereo not given) belongs 4%; to `COc1ccc(-c2nc(SCC(=O)N3CCCC3)n[nH]2)cc1`, 2.8%; to `CN(Cc1ccon1)CC1(O)CCCN(Cc2ccccc2F)C1=O` (stereo not given), 6.1%. With `CSCCC(=O)N1CCC(CCC(=O)Nc2cccc(C)c2)CC1` the figure was 2.6%; with `CCCn1cc(CN2CCOC(CCc3ccccc3)C2)c(C)n1` (stereo not given), inactive: -1.5%; with `O=C(CCn1nnnc1CN1CCOCC1)NCCCn1ncc2ccccc21`, 2.3%. To `CN(Cc1cnn(C)c1)C(=O)c1cc(COc2ccc(-n3cncn3)cc2)on1` belongs 0.2%. Take `COc1cc(CNC2(c3ccccc3)CC2)ccc1OCC(O)CN1CCOCC1` (stereo not given): the activity was 5.8%.

With `CCc1ccc(CN(C)Cc2cccc(OCC(O)CN3CCC(O)CC3)c2)nc1` (stereo not given), the activity worked out at 6.3%.

As for `CC(C)c1ccc(NC2CCCN(C(=O)CCc3cnccn3)C2)cc1` (stereo not given), the activity was found to be 2.6%. `NC(=O)C1CCCN(C(=O)Nc2ccc(F)cc2)C1` (stereo not given): the activity is inactive: -0.4%. To `CSc1nc(C(=O)N(C)C2CCCN(Cc3ccccc3F)C2)cs1` (stereo not given) belongs 5.1%; to `COc1cc(CNCc2ccc(C)o2)ccc1OCC(O)CN(C)C(C)C` (stereo not given), 9.7%; to `COc1cccc(NC(=O)CCC2CCN(C(=O)CCc3cnccn3)CC2)c1`, inactive: -0.4%.

Consider `CCCc1c(-c2n[nH]c3c2CN(C(=O)C(C)C)CC3)cnn1-c1ccccc1`, for which the activity is inactive: -0.8%. With `CC(=O)c1cccc(OCc2cc(C(=O)N(CC3CC3)CC3CCCO3)no2)c1` (stereo not given) the figure was 0.5%; with `Cn1nc(C(=O)N2CCc3[nH]nc(-c4ccc(Cl)cc4Cl)c3C2)ccc1=O`, inactive: -0.2%. Take `CC(C)=CCN1CCN(Cc2cn(C)nc2C)CC1CCO` (stereo not given): the activity came to 5.5%. For `Cc1occc1C(=O)N1CCC2(CCCN(Cc3ccc(F)c(F)c3)C2=O)C1` (stereo not given), the activity is 2.4%. Consider `O=C(c1cc(COc2ccc(F)cc2Cl)on1)N1CCN(c2cnccn2)CC1`, for which the activity was found to be 4.5%. To `COc1cccc(C(=O)NC2CC(=O)N(Cc3ccc(F)cc3)C2)c1` (stereo not given) belongs inactive: -1%; to `c1cncc(CNc2nc3nonc3nc2NCc2cccs2)c1`, 0.5%. To `NC(=O)C1(N2CCCCC2)CCN(C(=O)C2CCC(=O)N(C3CCCC3)C2)CC1` (stereo not given) belongs 5.6%; to `O=C(CCc1ccncc1)NC1CC(=O)N(Cc2ccccc2C(F)(F)F)C1` (stereo not given), 0.3%. With `Cc1cc(CNC(=O)C2CCCN(C(N)=O)C2)c2[nH]c(C)c(C)c2c1` (stereo not given) the figure was inactive: -2.1%. Consider `COC(=O)c1ccc(Cn2ncc(N3CCc4ccccc4C3)cc2=O)o1`, for which the activity was inactive: -4.1%.

In the case of `Cc1nc2cc(OCc3cc(C(=O)N(C)CCC4CCOCC4)no3)ccc2s1`, the activity was 0.2%. To `CCN(CC)CC(O)COc1ccc(CNCc2cnn(C)c2)cc1OC` (stereo not given) belongs 7.4%; to `O=C(Nc1ccccc1)N1CCN(c2nsc3ccccc23)CC1`, inactive: -22.1%; to `Cc1nccn1CCC(=O)N1CCCC(C(=O)c2ccc3c4c(cccc24)CC3)C1` (stereo not given), inactive: -4%. `Cc1ncc(CN2CCOC(Cc3cccc(C(F)(F)F)c3)C2)n1C` (stereo not given): the activity is inactive: -2.3%. With `CC(C)(CN1CCOCC1)CN1CCOC(CCc2ccccc2)C1` (stereo not given) the figure was 4.6%; with `O=C(NC1CCCN(C2CCCCCC2)C1)c1ccc(=O)[nH]n1` (stereo not given), inactive: -1.5%; with `CCS(=O)(=O)c1ncc(CN(C)CCc2ccccn2)n1CCOC`, 9.1%.

Consider `COc1ccc(C(C)N(C)Cc2nc(-c3ccc(OC)cc3OC)oc2C)cc1` (stereo not given), for which the activity was determined as 5.7%. To `CCNC(=O)N1CCOC(Cc2ccccc2Cl)C1` (stereo not given) belongs 3.9%; to `COC(=O)CCC(=O)N(C)CC1CCN(CCc2cccc(F)c2)CC1`, 4%; to `COc1ccc(-c2noc(CN3CCC(C)CC3)n2)cc1OC`, inactive: -16%. With `COc1ccc(-c2ncc(CNC3CCCN(c4ncccn4)C3)cn2)cc1` (stereo not given) the figure was 3.6%; with `COc1cccc(NC(=O)CCC2CCN(C(=O)CCn3cncn3)CC2)c1`, inactive: -1%. Regarding `CC#CCN(Cc1ccco1)C(=O)c1cn(CCN2CCCCC2)nn1`, the activity came to 1.3%. With `COc1ccc(-c2nc(CN(CCO)Cc3cccs3)c(C)o2)c(OC)c1` the figure was inactive: -4.8%; with `CN(C)S(=O)(=O)c1ccc(CCC(=O)N2CCOCC2)cc1`, 1.9%; with `O=C(CC(c1ccccc1)c1ccc2c(c1)OCO2)N1CCSCC1` (stereo not given), 0.2%. With `Cc1cc(C)n2nc(C(=O)N3CCC4(CCCN(CC(C)(C)C)C4)C3)cc2n1` (stereo not given) the figure was 2.5%. With `CN(Cc1cccc(OCC(O)CN2CCCCCC2)c1)Cc1cnccn1` (stereo not given) the figure was 0.6%; with `CC(=O)Nc1ccc(S(=O)(=O)N2CCN(C(=O)N3CCCCCC3)CC2)cc1`, inactive: -1.3%; with `CC(C)(C)OC(=O)N1CCNC(=O)C1CC(=O)OCC1CCCO1` (stereo not given), 1.5%. On to `CCN(Cc1ccncc1)CC1CCCN(CCc2cccc(F)c2)C1` (stereo not given), for which the activity is inactive: -0.5%. With `CCC(=O)Nc1nonc1-c1nc2ccccc2n1C(C)C` the figure was 8.8%. With `Cc1nc(CN(C)Cc2cn(C)nc2-c2cccc(Cl)c2)cs1` the figure was inactive: -3.9%; with `Cc1ccc2occ(CN3CCN(Cc4ccsc4)C(CCO)C3)c(=O)c2c1` (stereo not given), 2.3%; with `O=C(CCC1CCN(Cc2cc(F)ccc2-n2cccn2)CC1)N1CCOCC1`, 7%.

As to `CN(CCC(O)c1ccccc1)C(=O)CCCn1nnnc1CN1CCOCC1` (stereo not given), the activity worked out at 2.6%. With `COc1ccccc1N1CCN(C2CCCN(C(=O)CCc3ccccc3)C2)CC1` (stereo not given) the figure was 4%; with `COc1cc(C)c(Br)cc1S(=O)(=O)NCCN1CCOCC1`, inactive: -7.7%.

Turning to `COc1cccc(CC2CN(C3CCSCC3)CCO2)c1` (stereo not given), the activity amounted to 10.9%.

In the case of `COC(=O)c1ccc(CN2CCC(CCC(=O)NCC3CCCO3)CC2)cc1` (stereo not given), the activity was inactive: -1.1%.

As to `Cc1ccc(C(=O)N2CCCCCC2)cc1S(=O)(=O)N1CCCCC1`, the activity was inactive: -1%. To `Cc1nc2nc(C)c(CCC(C)C)c(=O)n2[nH]1` belongs 2.1%; to `Fc1ccc(C2(c3noc(-c4cn[nH]c4)n3)CCOC2)cc1` (stereo not given), 2.1%; to `COc1ccccc1CN1CCCC(CN(CCN(C)C)C(=O)c2ccoc2)C1` (stereo not given), 1.2%. To `Cc1occc1-c1nnc2sc(CCc3ccccc3)nn12` belongs inactive: -18.1%.

For `CC1(C)CC(NS(=O)(=O)c2cccc(F)c2)CC(C)(C)N1`, the activity was inactive: -0.9%.

On to `Cc1csc(CNCC2(O)CCCN(CC3CC3)C2=O)n1` (stereo not given), for which the activity was inactive: -1.7%. With `Nc1ncnc(N2CCc3ccccc32)n1` the figure was 5.6%; with `O=C1CCCCCN1CCC(=O)N1CCOC(CCc2ccccc2)C1` (stereo not given), 3.4%. Regarding `COCCOC1CCN(Cc2nc(-c3ccc(C(=O)OC)cc3)oc2C)CC1`, the activity came out at 15.7%.

As to `CN(C)Cc1ccc(C(=O)N2CCOC(CCc3ccccc3)C2)o1` (stereo not given), the activity is 5.7%. To `CCc1nn(C)c(NC(=O)Cn2cc(-c3ncc(F)c(NC)n3)cn2)c1C` belongs inactive: -0.7%; to `O=C(CCc1cn[nH]c1)N1CCOC(Cc2ccccc2Cl)C1` (stereo not given), inactive: -3.6%. With `CCN(CC)C(=O)n1nnc2ccccc21` the figure was inactive: -9.3%; with `CCCNC(=O)c1ccccc1NS(=O)(=O)Cc1ccccc1`, inactive: -1%; with `NC(=O)COc1ccc(Br)cc1CO`, inactive: -2.7%.

With `COCC1CCCCN1Cc1nc(-c2ccccc2C)oc1C` (stereo not given), the activity is inactive: -2.4%. With `CCCCn1nnnc1NCc1cccnc1` the figure was inactive: -5.4%; with `O=C(CCN1CCCO1)N1CCC2(CCCN(CCCc3ccccc3)C2)C1` (stereo not given), inactive: -2.5%; with `O=C(c1ccc(OC2CCN(Cc3ccccn3)CC2)cc1)N1C[C@@H]2CCC[C@H]1C2`, inactive: -4.5%. With `Cc1ccc(C(=O)N(CCN(C)C)CC2CCCN(Cc3ccccc3F)C2)cn1` (stereo not given) the figure was inactive: -0.8%; with `CN(C)c1nc2n(c(=O)n1)CCN2C(=O)Nc1ccccc1`, 1.8%. To `COc1ccc(C(=O)NCc2cccnc2N2CCN(C(C)=O)CC2)cc1F` belongs inactive: -2.7%. Consider `O=C(Cn1cncn1)N1CC[C@@H](N2CCN(CCc3ccccc3)CC2)[C@H](O)C1`, for which the activity was inactive: -2.2%.

Regarding `CCOc1ccc(CN2CCN(Cc3nc(CC)[nH]c3C)CC2CCO)cc1` (stereo not given), the activity was inactive: -1.2%. As to `C=CCN(CC=C)C(=O)c1coc(CN2CCN(Cc3ccccc3)CC2)n1`, the activity was 6.8%. Regarding `O=C(CCC1CCCN(C(=O)c2ccnc(Cl)c2)C1)N1CCN(c2ccccn2)CC1` (stereo not given), the activity amounted to 6.6%.

With `CC(Cn1cncn1)NC1CCN(c2cccc(-c3ccc(F)cc3)c2)CC1` (stereo not given), the activity is 4.1%.

Regarding `CCOC(=O)N1CCN(C2CCCN(C(=O)CSC)C2)CC1` (stereo not given), the activity is inactive: -4.3%. Turning to `CCCCc1ncc(CN2CCc3onc(-c4ccc5c(c4)OCO5)c3C2)[nH]1`, the activity stood at 4.2%. With `CC(C)(C)Cc1n[nH]c2c1CN(C(=O)c1coc3c1C(=O)CCC3)CC2` the figure was 2.1%; with `COc1ccc(OCC(O)CN(C)C)c(CNCCOC(C)C)c1` (stereo not given), 4.6%; with `CC12CCC(C(=O)Nc3cccc4cccnc34)(OC1=O)C2(C)C` (stereo not given), inactive: -11.7%. On to `COCCNCC1=C[C+]=C(N(C)C)C=C1`, for which the activity came out at 0.9%. With `COc1ccc2cc(-c3[nH]ncc3CN(CCO)Cc3cccs3)ccc2c1` the figure was inactive: -3.9%.
